According to patent US20080227813A1, “Pharmaceutical compositions and methods for treating diseases associated with neurodegeneration” (priority 2006, published 2008):

System: patients with ALS
Conditions: patients receiving riluzole only
Protocol: A clinical trial was conducted to assess the safety and tolerability of Compound I, at three dosages (75, 150, and 300 mg/day) as compared with placebo over 12 weeks of treatment in 80 patients with ALS. It was also conducted to determine the pharmacokinetic characterization of Compound I in serum, as well as cerebrospinal fluid (CSF) penetration, in a subset of the 80 patients participating in the study. This information was correlated with safety measures.
Methodology: This study was a multicenter, double-blind, placebo-controlled study of outpatients with ALS. Eighty subjects at 8-10 centers were enrolled. Subjects received placebo, 25 mg tid, 50 mg tid or 100 mg tid Compound I daily. All 80 subjects received treatment to determine safety and tolerability after 12 weeks of daily treatment. Follow-up visits occurred at 2, 4, 6, 8, 10, 12, and 16 weeks. A subset of participants were admitted to the General Clinical Research Center (GCRC), clinical research center or other department for serum pharmacokinetic studies at Baseline and Week 4, with additional trough serum sampling at Weeks 2, 8, and 12. Cerebrospinal fluid (CSF) penetration was only be evaluated at Week 4.

Nc1nc2ccc(OC(F)(F)F)cc2s1 [riluzole, Riluzole, reference compound]
effect on average ALSFRS-R score: no effect
